Data published in the supplement of paper PMC11732987, “Enantioselective OTUD7B fragment discovery through chemoproteomics screening and high-throughput optimisation” (Communications Chemistry, 2025).
The other results are listed elsewhere or left out. The data scatter; read single values as rough.

Amino acid sequences for entries named in this document (tags omitted). A change or cut given only in a name is not applied to a line headed by its entry. Residues count along the entry.
UniProt Q12846: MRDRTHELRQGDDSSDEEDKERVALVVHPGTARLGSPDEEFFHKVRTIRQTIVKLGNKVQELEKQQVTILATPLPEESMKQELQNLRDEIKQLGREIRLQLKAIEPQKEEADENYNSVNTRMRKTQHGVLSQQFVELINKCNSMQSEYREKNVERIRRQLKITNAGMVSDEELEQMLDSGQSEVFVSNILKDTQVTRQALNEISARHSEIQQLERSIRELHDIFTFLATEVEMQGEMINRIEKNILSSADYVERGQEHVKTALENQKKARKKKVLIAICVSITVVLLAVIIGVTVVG
UniProt Q9Y2D8: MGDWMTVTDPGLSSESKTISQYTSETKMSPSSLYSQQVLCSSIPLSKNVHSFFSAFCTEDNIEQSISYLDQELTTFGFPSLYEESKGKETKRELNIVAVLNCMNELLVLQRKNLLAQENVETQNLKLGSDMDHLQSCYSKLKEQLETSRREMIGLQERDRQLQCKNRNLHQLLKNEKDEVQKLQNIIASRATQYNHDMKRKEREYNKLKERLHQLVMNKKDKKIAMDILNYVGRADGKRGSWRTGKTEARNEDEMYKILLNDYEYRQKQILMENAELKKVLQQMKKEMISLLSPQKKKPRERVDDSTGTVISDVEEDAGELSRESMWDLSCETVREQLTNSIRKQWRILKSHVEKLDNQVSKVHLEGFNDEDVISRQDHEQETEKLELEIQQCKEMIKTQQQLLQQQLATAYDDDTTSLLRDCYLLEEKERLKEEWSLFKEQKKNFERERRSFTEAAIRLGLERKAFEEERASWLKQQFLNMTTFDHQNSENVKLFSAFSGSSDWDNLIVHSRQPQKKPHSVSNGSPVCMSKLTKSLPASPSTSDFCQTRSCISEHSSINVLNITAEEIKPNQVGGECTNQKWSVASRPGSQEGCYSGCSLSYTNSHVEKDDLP
UniProt Q13188: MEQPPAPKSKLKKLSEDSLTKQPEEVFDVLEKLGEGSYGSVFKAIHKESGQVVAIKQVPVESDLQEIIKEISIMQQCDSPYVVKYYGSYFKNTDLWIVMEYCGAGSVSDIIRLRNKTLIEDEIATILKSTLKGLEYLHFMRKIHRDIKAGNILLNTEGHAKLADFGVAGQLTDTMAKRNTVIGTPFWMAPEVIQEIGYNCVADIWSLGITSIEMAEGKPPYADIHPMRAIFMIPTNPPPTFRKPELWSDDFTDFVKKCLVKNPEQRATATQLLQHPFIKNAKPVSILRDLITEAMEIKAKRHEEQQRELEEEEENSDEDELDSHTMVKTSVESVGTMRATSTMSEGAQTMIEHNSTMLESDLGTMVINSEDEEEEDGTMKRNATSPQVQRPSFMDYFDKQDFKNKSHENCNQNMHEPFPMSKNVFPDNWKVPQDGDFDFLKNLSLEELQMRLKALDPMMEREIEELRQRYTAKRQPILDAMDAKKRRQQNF
UniProt Q5M775, 355-376: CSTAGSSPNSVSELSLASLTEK
UniProt Q8IX01: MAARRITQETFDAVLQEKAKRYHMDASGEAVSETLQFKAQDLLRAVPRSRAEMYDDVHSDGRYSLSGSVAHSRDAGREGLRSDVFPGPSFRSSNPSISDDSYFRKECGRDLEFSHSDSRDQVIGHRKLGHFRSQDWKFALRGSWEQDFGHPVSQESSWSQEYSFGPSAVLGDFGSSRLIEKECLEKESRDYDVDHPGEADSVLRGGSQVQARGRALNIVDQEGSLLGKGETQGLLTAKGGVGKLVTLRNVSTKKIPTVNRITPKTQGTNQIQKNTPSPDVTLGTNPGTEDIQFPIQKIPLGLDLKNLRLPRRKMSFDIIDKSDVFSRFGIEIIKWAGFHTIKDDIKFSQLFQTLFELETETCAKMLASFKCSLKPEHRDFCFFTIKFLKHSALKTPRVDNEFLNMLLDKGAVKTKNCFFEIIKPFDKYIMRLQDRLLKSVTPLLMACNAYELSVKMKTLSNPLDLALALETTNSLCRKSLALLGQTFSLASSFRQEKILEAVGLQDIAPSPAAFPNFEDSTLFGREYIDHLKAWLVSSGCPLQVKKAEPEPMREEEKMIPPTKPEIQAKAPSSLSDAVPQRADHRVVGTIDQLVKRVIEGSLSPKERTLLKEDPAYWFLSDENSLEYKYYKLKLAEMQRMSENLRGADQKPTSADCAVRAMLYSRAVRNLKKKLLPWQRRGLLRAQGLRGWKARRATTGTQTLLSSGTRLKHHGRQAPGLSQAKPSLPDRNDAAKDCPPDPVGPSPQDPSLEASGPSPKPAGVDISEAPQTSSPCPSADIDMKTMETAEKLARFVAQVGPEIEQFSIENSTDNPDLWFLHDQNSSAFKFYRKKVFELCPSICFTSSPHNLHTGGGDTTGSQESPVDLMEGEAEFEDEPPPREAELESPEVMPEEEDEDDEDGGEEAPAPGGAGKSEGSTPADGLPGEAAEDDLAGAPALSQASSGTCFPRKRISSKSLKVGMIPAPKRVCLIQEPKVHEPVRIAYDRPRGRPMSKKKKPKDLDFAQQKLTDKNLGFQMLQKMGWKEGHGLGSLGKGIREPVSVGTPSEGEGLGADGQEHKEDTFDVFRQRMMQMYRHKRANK
UniProt Q07955, whole entry, looked up: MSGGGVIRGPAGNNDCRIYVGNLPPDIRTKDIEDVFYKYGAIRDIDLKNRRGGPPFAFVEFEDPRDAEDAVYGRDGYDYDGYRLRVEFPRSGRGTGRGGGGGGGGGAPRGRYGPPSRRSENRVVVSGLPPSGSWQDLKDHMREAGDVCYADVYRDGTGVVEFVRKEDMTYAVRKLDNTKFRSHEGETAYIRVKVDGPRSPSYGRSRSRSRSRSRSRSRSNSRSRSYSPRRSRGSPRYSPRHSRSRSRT
UniProt Q6ZWJ1: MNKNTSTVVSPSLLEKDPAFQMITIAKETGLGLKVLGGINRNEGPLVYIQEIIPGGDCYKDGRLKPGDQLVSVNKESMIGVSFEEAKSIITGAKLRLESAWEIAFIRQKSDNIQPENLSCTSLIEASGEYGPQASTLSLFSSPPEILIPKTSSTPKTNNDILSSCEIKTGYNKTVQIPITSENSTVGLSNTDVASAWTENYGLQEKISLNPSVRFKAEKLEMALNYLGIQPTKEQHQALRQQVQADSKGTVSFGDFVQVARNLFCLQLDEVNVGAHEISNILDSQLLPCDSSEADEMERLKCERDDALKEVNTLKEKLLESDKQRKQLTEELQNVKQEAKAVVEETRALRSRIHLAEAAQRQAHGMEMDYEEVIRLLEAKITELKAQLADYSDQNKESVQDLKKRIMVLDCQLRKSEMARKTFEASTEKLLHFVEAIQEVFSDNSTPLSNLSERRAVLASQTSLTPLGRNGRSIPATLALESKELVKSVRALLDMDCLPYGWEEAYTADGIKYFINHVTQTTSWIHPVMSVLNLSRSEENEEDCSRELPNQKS
UniProt Q9NZD8: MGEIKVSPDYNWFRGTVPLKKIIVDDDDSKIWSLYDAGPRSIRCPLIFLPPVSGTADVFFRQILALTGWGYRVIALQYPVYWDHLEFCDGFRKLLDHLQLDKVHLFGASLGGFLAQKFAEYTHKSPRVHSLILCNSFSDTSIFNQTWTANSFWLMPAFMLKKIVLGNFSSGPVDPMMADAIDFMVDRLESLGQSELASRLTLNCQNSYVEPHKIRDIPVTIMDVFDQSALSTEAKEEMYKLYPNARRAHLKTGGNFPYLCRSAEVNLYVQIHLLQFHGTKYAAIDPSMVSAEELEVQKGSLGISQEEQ
UniProt Q9UHB9: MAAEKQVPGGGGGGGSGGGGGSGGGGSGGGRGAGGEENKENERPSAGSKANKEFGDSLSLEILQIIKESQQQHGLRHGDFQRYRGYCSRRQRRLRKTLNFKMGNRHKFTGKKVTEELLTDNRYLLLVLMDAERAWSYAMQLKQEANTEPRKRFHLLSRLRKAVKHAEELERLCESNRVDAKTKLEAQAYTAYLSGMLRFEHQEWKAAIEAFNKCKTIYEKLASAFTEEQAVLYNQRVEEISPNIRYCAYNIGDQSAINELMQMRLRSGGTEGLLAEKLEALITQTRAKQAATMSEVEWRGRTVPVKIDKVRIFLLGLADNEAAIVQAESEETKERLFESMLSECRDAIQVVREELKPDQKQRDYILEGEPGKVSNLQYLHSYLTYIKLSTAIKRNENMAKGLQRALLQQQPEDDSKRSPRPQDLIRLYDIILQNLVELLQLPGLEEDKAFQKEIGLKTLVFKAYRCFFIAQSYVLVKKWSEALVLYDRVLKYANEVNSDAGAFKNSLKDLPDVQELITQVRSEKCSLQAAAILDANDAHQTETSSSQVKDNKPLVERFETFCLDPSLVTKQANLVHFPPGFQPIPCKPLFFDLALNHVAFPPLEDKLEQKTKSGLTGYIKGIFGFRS
UniProt Q8N3U4: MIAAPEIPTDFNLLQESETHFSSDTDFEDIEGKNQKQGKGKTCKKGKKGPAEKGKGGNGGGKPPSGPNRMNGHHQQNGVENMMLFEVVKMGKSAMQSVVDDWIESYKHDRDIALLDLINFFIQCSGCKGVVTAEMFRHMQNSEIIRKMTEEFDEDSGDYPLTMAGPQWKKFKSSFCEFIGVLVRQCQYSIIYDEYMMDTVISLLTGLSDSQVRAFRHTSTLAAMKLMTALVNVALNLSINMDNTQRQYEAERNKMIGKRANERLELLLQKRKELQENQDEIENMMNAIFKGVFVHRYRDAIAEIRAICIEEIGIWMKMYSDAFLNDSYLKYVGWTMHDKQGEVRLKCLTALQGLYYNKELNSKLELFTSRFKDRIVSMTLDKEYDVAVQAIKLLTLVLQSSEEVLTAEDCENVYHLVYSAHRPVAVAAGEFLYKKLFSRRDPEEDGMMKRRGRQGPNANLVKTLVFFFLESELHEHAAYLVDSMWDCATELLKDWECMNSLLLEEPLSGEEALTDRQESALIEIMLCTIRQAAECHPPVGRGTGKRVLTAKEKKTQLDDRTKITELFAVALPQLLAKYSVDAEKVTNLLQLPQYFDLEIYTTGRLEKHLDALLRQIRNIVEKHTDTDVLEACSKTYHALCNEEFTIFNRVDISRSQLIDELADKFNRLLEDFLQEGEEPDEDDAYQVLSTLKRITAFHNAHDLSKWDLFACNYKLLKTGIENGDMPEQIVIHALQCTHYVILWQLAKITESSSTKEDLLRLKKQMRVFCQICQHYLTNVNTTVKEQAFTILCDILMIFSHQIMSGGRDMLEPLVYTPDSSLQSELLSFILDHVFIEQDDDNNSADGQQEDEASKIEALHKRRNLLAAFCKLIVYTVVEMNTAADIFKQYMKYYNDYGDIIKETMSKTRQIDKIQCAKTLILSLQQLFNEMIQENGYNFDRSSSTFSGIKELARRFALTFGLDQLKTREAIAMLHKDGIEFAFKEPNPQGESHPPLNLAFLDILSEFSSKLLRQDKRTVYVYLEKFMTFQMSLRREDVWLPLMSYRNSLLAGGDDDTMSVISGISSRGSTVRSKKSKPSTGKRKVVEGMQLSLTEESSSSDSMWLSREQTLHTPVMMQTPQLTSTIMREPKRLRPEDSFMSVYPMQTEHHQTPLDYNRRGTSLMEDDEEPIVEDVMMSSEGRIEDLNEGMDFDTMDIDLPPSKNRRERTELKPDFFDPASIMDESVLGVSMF
UniProt O94804: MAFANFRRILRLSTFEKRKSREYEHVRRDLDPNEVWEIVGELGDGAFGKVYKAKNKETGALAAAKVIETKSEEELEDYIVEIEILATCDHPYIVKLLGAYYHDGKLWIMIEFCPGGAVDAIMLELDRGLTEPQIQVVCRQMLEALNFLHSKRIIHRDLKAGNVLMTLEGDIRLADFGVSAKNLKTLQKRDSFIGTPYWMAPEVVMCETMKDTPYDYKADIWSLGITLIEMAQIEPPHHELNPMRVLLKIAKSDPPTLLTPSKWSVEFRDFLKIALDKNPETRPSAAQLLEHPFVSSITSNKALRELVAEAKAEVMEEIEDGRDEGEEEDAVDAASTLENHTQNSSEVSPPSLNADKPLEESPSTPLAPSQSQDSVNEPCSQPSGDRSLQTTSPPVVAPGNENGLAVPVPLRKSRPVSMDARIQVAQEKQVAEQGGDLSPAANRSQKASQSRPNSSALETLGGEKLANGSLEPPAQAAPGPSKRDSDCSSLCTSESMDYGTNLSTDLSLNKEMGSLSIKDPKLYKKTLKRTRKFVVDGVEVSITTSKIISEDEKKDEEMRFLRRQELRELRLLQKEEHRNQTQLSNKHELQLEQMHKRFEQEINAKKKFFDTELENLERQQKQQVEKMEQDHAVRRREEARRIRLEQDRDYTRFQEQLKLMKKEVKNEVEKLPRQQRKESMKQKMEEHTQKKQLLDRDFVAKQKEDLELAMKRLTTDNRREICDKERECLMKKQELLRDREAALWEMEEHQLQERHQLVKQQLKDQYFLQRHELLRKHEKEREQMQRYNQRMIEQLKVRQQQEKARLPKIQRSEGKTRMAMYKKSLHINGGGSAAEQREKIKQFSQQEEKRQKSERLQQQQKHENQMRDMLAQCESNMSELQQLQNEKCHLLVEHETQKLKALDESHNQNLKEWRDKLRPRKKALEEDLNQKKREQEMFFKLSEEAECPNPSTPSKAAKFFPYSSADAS

Key:
[1] = compound: ClCC(=O)N[C@H]1CCCc2ccccc12; assay: log2 mean competition ratio of IA-DTB cysteine labelling (DMSO/compound) (log2 ratio); higher = stronger cysteine engagement by compound; settings: treatment time: 4 h, cell line lysate: HEK293T
Method: (§1)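 IA-DTB competitive cysteine chemoproteomics in HEK293T RIPA lysate. Lysates were treated with compound 29 or 30 at 50 or 200 µM for 4 h, then IA-DTB (500 µM, 1 h), trypsin-digested, NeutrAvidin-enriched and analysed by diaPASEF. Competition ratio = intensity DMSO / intensity compound (n=4 treated, n=64 DMSO); binding: mean log2 CR ≥ 1 and p ≤ 0.05 plus QC filters. Target is the cysteine site.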

[2] = compound: ClCC(=O)N[C@@H]1CCCc2ccccc12; assay: as above; settings: treatment time: 4 h, cell line lysate: HEK293T
Method: as §1

Target | log2 mean competition ratio ([1]; 50 µM) | log2 mean competition ratio ([1]; 200 µM) | log2 mean competition ratio ([2]; 200 µM) | log2 mean competition ratio ([2]; 50 µM)
SPATS2L C185 (UniProt Q9NUQ6) | -0.451 | -0.0358 |  | 
STX4 C141 (UniProt Q12846) | -0.331 | -0.174 |  | 
SPATA33 C101 (UniProt Q96N06) | 0.348 | -0.18 |  | 
SSB C245 | -0.156 | -0.223 |  | 
SPTLC1 C192 (UniProt O15269) | 0.478 | 0.0458 |  | 
SRBD1 C120 (UniProt Q8N5C6) | 0.477 | -0.163 |  | 
STRN4 C713 (UniProt Q9NRL3) | 0.0462 | -0.0395 |  | 
SSX2IP C547 (UniProt Q9Y2D8) | -0.0428 | -0.0558 | 0.299 | 
STEAP3 C168 (UniProt Q658P3) | -0.11 | 0.12 |  | 
STK3 C77 (UniProt Q13188) | 0.248 | -0.36 | -0.277 | -0.0485
SPEN C2398 (UniProt Q96T58) | 0.0708 | -0.215 | -0.0114 | -0.418
STARD7 C362 (UniProt Q9NQZ5) | -0.362 | 0.171 | 0.309 | -0.0403
STK4 C80 (UniProt Q13043) | 0.15 | -0.324 |  | 
SRGAP1 C603 (UniProt Q7Z6B7) | -0.436 | -0.165 | -0.32 | -0.0586
SYNE2 C2520 (UniProt Q8WXH0) | 0.918 | 0.00592 |  | 
SYNE2 C601 (UniProt Q8WXH0) | -0.192 | 0.0745 | -0.0436 | -0.172
SUMF2 C290 (UniProt Q8NBJ7) | 0.172 | 0.536 | 0.278 | -0.0567
SPRY1 C305 (UniProt O43609) | 0.249 | 0.229 |  | 
STAM2 C85 (UniProt O75886) | 0.00395 | -0.0708 | 0.145 | 0.16

Target | log2 mean competition ratio ([1]; 50 µM) | log2 mean competition ratio ([1]; 200 µM) | log2 mean competition ratio ([2]; 200 µM) | log2 mean competition ratio ([2]; 50 µM)
SPECC1 C355 (UniProt Q5M775) | 0.411 | 0.00402 |  | 
STRIP1 C100 (UniProt Q5VSL9) | 0.308 | 0.269 |  | 
SRRM2 C956 (UniProt Q9UQ35) | 0.0755 | 0.0665 |  | 
SUGP2 C656 (UniProt Q8IX01) | 0.2 | 0.787 |  | 
SYNE2 C553 (UniProt Q8WXH0) | -0.185 | 0.0964 |  | 
SPTLC2 C19 (UniProt O15270) | -0.0517 | 0.0547 |  | 
STXBP1 C552 (UniProt P61764) | -0.0602 | -0.0347 |  | 
SYMPK C969 (UniProt Q92797) | -0.0175 | -0.00784 |  | 
STK39 C525 (UniProt Q9UEW8) | 0.115 | -0.219 |  | 
SRSF1 C16 (UniProt Q07955) | -0.0171 | 0.409 |  | 
SRBD1 C229 (UniProt Q8N5C6) | -0.158 | -0.0406 |  | 
SUGT1 C154 (UniProt Q9Y2Z0) | -0.573 | -0.379 |  | 
SPECC1 C740 (UniProt Q5M775) | -0.164 | -0.121 |  | 
SPTAN1 C1314 (UniProt Q13813) | 0.28 | -0.0619 |  | 
STXBP4 C411 (UniProt Q6ZWJ1) | -0.249 | 0.1 |  | 
SQSTM1 C113 (UniProt Q13501) | -0.195 | 0.00829 |  | 
SRP72 C128 (UniProt O76094) | -0.785 | -0.0714 |  | 
SYNE2 C1151 (UniProt Q8WXH0) | -0.0447 | -0.112 |  | 
SPG21 C204 (UniProt Q9NZD8) | -0.0622 | -0.525 |  | 

Reprinted at random: four entries already listed.
Target | log2 mean competition ratio ([1]; 50 µM) | log2 mean competition ratio ([1]; 200 µM) | log2 mean competition ratio ([2]; 200 µM) | log2 mean competition ratio ([2]; 50 µM)
SRSF1 C16 (UniProt Q07955) | -0.0171 | 0.409 |  | 
STXBP4 C411 (UniProt Q6ZWJ1) | -0.249 | 0.1 |  | 
SPTLC2 C19 (UniProt O15270) | -0.0517 | 0.0547 |  | 
SUGP2 C656 (UniProt Q8IX01) | 0.2 | 0.787 |  | 

(list continues)

Target | log2 mean competition ratio ([1]; 50 µM) | log2 mean competition ratio ([1]; 200 µM) | log2 mean competition ratio ([2]; 200 µM) | log2 mean competition ratio ([2]; 50 µM)
SWT1 C127 | -0.486 | 0.00543 |  | 
SYNE2 C2212 (UniProt Q8WXH0) | -0.103 | -0.00733 |  | 
SYNE2 C568 (UniProt Q8WXH0) | 0.487 | 0.523 |  | 
STK38 C9 (UniProt Q15208) | 0.0102 | -0.0721 |  | 
STK11IP C918 (UniProt Q8N1F8) | -0.257 | -0.0671 |  | 
SSX2IP C331 (UniProt Q9Y2D8) | 0.266 | 0.239 |  | 
STAT5B C101 (UniProt P51692) | 0.701 | 0.338 |  | 
SUPT5H C429 (UniProt O00267) | 0.105 | -0.316 |  | 
SQSTM1 C331 (UniProt Q13501) | 0.3 | -0.144 |  | 
SPEN C1238 (UniProt Q96T58) | 0.0174 | 0.369 |  | 
STRN4 C337 (UniProt Q9NRL3) | -0.023 | -0.0399 |  | 
SSH2 C1210 (UniProt Q76I76) | 0.104 | 0.0719 |  | 
SRP68 C562 (UniProt Q9UHB9) | -0.0918 | 0.109 |  | 
SYNRG C1194 (UniProt Q9UMZ2) | -0.345 | -0.349 |  | 
STAG2 C711 (UniProt Q8N3U4) | 0.18 | 0.115 |  | 
STXBP4 C165 (UniProt Q6ZWJ1) | -0.23 | 0.0624 |  | 
STK10 C722 (UniProt O94804) | 0.226 | -0.146 |  | 
SUPT20H C255 (UniProt Q8NEM7) | -0.647 | 0.123 |  | 
SUGP2 C371 (UniProt Q8IX01) | 0.487 | -0.29 |  | 
